Measured values taken from publication PMC4014986.
No constants are given. Whether binding was seen depends on the method and setting. Some entries that bind do so weakly or less than the wild type.

Sequences of proteins named here, by UniProt entry; tags and fusion partners are left off. Residues count along the entry.
UniProt Q9NQX4, residues 1-1109: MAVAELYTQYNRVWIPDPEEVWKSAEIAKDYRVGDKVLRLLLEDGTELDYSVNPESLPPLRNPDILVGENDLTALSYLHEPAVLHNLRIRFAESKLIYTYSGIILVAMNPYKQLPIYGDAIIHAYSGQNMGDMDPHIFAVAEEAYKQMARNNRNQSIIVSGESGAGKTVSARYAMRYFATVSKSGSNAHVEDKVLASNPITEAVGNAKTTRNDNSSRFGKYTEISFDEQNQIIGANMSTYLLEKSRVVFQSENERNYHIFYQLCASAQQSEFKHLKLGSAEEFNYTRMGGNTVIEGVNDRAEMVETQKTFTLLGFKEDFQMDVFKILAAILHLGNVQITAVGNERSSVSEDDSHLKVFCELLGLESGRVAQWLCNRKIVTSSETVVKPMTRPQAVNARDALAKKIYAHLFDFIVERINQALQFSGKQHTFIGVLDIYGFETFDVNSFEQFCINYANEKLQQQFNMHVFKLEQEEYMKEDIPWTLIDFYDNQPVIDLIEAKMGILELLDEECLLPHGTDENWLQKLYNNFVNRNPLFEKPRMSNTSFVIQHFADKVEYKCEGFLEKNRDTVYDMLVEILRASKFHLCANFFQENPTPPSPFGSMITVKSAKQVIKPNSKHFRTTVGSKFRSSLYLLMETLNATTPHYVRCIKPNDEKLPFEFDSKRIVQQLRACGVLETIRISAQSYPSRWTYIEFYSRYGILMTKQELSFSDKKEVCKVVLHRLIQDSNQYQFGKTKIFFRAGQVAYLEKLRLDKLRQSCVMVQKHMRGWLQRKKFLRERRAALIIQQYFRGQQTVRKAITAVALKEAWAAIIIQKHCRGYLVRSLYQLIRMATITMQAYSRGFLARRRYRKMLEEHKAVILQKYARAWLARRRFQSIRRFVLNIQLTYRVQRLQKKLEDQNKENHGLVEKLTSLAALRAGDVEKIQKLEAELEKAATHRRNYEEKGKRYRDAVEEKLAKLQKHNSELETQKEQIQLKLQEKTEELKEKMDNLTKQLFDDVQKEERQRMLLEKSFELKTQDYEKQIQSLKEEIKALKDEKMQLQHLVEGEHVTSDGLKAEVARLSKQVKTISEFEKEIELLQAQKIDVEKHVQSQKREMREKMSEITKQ

Molecular target: Myo5c-HMM with a SNAP-tag and a FLAG tag (Myo5c-HMM-SNAP-FLAG) (human) (UniProt Q9NQX4)
Assay: sequential affinity co-purification (Ni-NTA agarose, then anti-FLAG column); the two differently tagged heavy chains co-expressed with calmodulin in Sf9 cells; Ni-NTA eluted with 250 mM imidazole, Q Sepharose, dialysis, anti-FLAG column eluted with FLAG peptide

binding: binds
Substance: Myo5c-HMM with six histidines (Myo5c-HMM-6x-His) (from UniProt Q9NQX4 1-1109) (domain or fragment)
